# Test results from the supplement of paper PMC10849652.
# The chains behind the UniProt entries cited, without tags or fusion partners. Where a name states a change or a piece, a line headed by the entry shows the natural chain unless it says otherwise.
# UniProt P67812: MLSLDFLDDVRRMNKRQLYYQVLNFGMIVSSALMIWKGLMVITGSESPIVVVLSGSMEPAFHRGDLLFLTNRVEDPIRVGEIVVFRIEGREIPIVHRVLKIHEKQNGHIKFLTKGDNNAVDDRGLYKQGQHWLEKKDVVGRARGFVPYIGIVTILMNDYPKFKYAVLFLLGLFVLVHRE
# UniProt Q969E2: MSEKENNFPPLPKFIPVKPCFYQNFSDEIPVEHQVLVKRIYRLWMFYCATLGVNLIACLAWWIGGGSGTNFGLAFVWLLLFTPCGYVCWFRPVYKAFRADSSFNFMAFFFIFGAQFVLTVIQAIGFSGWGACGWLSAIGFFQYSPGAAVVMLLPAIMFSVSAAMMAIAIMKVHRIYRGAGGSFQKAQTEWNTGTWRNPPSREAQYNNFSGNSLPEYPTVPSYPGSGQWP
# UniProt Q96FV2: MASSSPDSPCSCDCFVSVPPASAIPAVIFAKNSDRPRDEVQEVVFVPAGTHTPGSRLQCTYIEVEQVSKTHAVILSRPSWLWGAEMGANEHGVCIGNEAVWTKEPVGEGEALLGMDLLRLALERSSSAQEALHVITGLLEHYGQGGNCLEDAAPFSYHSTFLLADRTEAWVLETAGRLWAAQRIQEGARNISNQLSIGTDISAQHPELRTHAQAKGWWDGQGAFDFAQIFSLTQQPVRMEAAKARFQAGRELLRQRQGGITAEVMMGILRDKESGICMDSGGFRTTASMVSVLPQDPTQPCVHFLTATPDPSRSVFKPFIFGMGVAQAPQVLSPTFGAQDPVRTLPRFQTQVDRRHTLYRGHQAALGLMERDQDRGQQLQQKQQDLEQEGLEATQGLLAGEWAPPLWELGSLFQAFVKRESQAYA
# UniProt Q12770: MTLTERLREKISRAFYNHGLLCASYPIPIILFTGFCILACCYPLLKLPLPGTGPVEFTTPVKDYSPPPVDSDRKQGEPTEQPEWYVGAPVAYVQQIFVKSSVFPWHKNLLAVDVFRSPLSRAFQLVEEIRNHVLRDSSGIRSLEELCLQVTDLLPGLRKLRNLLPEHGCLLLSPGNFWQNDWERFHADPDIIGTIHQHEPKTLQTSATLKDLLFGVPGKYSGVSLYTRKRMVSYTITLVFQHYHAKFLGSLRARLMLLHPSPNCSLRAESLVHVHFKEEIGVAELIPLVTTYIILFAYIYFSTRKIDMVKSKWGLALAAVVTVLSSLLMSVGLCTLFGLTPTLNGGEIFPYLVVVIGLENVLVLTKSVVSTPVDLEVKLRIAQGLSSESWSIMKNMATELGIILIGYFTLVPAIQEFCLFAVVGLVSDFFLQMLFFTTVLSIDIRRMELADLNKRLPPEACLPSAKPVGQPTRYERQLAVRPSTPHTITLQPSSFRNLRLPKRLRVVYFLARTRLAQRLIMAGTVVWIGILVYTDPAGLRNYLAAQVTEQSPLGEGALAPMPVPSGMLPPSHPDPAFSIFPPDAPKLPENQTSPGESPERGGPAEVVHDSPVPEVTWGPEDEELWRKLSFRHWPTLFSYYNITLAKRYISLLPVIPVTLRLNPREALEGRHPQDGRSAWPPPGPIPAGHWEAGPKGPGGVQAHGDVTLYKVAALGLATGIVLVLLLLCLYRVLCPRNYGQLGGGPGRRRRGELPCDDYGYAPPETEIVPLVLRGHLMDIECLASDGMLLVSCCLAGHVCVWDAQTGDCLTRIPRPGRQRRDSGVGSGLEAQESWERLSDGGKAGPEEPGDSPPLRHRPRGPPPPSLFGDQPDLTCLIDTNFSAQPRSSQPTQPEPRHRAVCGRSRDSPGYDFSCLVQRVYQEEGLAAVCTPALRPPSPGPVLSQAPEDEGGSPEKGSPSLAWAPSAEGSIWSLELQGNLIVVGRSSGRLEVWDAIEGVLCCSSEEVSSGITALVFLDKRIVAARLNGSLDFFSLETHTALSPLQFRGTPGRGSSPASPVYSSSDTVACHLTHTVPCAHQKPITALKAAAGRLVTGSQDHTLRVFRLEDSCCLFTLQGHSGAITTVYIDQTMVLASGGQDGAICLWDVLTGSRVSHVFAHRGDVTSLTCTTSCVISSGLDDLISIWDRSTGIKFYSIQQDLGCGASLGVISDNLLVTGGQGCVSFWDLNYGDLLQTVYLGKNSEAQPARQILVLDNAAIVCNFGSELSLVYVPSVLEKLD
# UniProt P25815: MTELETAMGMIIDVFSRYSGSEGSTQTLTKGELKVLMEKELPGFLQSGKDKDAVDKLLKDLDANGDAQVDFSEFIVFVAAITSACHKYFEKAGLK
# UniProt Q9UHR5: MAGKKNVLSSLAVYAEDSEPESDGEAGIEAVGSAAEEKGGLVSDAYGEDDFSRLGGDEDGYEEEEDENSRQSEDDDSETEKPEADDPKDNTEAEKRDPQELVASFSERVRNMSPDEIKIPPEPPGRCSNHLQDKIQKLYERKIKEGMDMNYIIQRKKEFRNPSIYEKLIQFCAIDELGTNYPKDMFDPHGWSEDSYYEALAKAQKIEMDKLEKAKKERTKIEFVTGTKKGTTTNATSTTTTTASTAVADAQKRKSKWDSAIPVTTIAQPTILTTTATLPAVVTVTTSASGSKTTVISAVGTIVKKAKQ
# UniProt Q6PCB5: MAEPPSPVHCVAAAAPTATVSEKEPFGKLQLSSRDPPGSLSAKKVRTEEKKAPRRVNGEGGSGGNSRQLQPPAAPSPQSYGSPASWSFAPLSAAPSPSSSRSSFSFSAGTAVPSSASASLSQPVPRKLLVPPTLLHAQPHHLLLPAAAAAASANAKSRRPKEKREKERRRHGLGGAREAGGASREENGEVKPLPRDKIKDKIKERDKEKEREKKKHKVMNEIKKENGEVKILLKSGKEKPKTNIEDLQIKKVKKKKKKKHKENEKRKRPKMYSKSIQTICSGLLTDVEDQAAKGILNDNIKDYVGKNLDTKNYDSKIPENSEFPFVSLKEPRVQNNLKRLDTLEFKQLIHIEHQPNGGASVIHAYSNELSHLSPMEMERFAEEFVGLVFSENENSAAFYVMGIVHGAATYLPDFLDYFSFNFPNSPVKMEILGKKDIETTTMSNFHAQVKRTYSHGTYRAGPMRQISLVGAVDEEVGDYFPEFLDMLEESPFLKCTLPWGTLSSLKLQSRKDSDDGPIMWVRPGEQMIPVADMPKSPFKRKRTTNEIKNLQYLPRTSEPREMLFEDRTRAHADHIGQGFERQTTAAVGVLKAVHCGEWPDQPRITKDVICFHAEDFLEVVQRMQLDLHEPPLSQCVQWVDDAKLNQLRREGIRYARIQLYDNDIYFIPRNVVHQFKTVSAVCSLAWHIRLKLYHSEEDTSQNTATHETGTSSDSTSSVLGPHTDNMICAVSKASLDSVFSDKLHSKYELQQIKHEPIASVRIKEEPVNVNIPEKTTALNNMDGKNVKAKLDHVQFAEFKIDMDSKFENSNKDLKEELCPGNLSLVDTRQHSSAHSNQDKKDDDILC
# UniProt P31949: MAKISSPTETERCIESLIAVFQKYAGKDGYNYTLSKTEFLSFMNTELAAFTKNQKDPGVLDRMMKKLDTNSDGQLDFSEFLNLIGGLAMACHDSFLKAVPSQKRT
# UniProt O14828: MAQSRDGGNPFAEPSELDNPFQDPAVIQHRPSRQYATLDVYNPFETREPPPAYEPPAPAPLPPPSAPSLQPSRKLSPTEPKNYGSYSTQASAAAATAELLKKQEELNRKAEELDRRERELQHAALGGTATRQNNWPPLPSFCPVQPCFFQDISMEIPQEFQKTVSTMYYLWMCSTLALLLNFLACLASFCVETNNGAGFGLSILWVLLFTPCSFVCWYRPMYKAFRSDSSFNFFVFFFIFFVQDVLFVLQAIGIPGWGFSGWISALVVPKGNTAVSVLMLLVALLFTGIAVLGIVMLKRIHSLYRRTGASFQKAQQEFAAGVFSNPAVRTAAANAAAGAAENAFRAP
# UniProt Q0VDG4: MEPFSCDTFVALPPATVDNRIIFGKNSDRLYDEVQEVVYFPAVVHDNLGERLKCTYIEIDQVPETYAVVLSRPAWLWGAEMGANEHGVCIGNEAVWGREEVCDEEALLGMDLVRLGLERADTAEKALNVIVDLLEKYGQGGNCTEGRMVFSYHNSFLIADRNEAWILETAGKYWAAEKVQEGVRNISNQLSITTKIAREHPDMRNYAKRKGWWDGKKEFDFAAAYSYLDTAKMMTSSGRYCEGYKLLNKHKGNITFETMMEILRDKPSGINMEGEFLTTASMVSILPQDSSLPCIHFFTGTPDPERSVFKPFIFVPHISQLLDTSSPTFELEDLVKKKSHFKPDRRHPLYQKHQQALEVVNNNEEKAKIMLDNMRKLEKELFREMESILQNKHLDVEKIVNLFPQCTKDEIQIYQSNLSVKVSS
# UniProt O95197: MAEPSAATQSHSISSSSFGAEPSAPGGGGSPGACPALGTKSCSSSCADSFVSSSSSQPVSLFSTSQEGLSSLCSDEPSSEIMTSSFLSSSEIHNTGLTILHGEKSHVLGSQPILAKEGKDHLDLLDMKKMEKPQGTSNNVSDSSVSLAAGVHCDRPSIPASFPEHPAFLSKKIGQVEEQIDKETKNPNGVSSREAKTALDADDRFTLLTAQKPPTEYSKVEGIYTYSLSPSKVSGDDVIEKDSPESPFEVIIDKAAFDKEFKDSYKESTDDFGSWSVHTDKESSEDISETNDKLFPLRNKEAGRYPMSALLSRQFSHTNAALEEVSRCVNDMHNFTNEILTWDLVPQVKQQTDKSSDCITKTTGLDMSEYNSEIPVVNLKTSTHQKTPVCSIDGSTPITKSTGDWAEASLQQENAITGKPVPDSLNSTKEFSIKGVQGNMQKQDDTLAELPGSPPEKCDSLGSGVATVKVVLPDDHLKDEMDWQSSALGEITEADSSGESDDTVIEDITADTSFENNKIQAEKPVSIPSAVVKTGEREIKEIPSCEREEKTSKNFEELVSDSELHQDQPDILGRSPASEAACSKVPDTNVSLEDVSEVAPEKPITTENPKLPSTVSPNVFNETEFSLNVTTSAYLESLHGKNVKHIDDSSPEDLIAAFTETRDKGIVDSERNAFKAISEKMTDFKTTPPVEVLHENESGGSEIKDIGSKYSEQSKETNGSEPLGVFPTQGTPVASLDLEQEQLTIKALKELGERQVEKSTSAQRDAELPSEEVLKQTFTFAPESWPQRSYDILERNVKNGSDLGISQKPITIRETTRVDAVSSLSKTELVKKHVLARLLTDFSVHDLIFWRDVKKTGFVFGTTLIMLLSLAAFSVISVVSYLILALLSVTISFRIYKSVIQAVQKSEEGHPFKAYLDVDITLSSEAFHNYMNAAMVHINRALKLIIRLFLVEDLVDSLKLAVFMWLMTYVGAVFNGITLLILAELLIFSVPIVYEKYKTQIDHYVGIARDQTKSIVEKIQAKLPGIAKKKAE
# UniProt Q9UBE0: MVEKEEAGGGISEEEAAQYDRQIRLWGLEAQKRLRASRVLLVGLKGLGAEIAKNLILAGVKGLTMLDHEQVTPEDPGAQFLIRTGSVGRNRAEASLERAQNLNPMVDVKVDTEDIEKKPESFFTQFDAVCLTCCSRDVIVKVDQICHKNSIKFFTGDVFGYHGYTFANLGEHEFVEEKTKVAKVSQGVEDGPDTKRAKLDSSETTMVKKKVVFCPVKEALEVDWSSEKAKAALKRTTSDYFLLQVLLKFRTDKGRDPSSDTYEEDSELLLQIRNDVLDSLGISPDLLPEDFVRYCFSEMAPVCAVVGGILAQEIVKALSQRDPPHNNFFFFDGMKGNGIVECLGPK
# UniProt Q96ER3: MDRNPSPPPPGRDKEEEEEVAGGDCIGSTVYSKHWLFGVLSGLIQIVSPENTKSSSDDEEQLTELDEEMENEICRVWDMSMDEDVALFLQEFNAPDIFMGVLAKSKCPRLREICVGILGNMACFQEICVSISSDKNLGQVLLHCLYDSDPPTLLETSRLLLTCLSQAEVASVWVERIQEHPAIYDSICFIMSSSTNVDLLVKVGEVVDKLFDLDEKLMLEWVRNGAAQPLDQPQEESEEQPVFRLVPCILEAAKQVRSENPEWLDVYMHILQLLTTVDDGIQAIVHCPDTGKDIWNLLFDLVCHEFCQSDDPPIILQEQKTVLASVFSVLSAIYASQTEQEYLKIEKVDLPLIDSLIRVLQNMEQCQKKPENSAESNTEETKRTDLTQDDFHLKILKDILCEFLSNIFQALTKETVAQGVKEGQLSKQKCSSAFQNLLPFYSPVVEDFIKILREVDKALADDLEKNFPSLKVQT
# The other results are listed elsewhere or left out.
# What was measured:
# Experiment in all cases: log2 fold change, soluble protein after heating vs DMSO (PISA); higher = thermal stabilisation; K562 cells, 10 uM, 30 min; active = over 0.2 and 3.5 SD of the protein, either way, in both replicates (recomputed)
# [1] = compound: CC1=C(C=C(C=C1)NC(=O)C2=CC(=CC=C2)C(C)(C)C#N)NC3=CC4=C(C=C3)N=CN(C4=O)C
# In short: (§1)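 K562 cells at 2×10^6 cells/mL were exposed to 10 μM compound for 30 min, then aliquots were heated for 3 min across 48°C-58°C, pooled, and extracted in PBS containing 0.5% NP-40 at 4°C. The supernatant after 21,000xg for 90 min was taken as soluble protein and measured by TMTpro 16plex LC-MS/MS with channel sums equalised. Thermal stability is reported relative to control samples, with values from duplicates. Fold changes are given on a log2 scale.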
# [2] = compound: CC1=C(C=C(C=C1)NC(=O)C2=CC(=CC=C2)N(C)C)NC(=O)C3=CC=C(C=C3)O
# In short: as §1
# [3] = compound: CC1=CC=C(C=C1)SC2=C3C=C(SC3=CN=C2)C(=O)N
# In short: as §1
# [4] = compound: CC1=NC(=CC=C1)C2=C(N=C(N2)C(C)(C)C)C3=CC4=NC=CN=C4C=C3
# In short: as §1
# [5] = compound: CCCCN(Cc1ccc(C(=O)NO)cc1)C(=O)Nc1ccccc1 [Nexturastat A]
# In short: as §1
# [6] = compound: CCCS(=O)(=O)Nc1ccc(F)c(C(=O)c2c[nH]c3ncc(-c4ccc(Cl)cc4)cc23)c1F [vemurafenib]
# In short: as §1
# [7] = compound: CCCS(=O)(=O)Nc1ccc(F)c(C(=O)c2c[nH]c3ncc(Cl)cc23)c1F
# In short: as §1
# [8] = compound: CCCc1cc(C)[nH]c(=O)c1CNC(=O)c1cc(-c2ccnc(N3CCN(C)CC3)c2)cc2c1cnn2C(C)C
# In short: as §1
# [9] = compound: CCN(CC)Cc1ccc2cc(COC(=O)Nc3ccc(C(=O)NO)cc3)ccc2c1 [givinostat]
# In short: as §1
# [10] = compound: CCN(CCCOc1ccc2c(Nc3cc(CC(=O)Nc4cccc(F)c4)[nH]n3)ncnc2c1)CCOP(=O)(O)O [barasertib]
# In short: as §1
# [11] = compound: CC[C@@H]1C(=O)N(C)c2cnc(Nc3ccc(C(=O)NC4CCN(C)CC4)cc3OC)nc2N1C1CCCC1
# In short: as §1
# [12] = compound: CC[C@@H]1C(=O)N(C)c2cnc(Nc3ccc(C(=O)N[C@H]4CC[C@H](N5CCN(CC6CC6)CC5)CC4)cc3OC)nc2N1C(C)C [volasertib]
# In short: as §1
# [13] = compound: CC[C@H](C)N1C=C(C2=C(C=C(C=C21)C3=CN=C(C=C3)N4CCNCC4)C(=O)NCC5=C(C=C(NC5=O)C)C)C
# In short: as §1
# [14] = compound: CC[C@H](C)[C@@H](C(=O)N[C@@H]([C@@H](C)O)C(=O)N[C@@H](CC(C)C)C(=O)[C@]1(CO1)C)NC(=O)[C@H]([C@@H](C)CC)N(C)C(=O)C [epoxomicin]
# In short: as §1
# [15] = compound: CCn1c(C(=O)N(C2CC2)C2CC2)cc2c3c(ncn3C)c(Nc3cc(C)n(C)n3)nc21
# In short: as §1
# [16] = compound: CCn1cc(-c2ccnc3[nH]c(-c4cccc(CN(C)C)c4)cc23)c(-c2ccc(NC(=O)N(C)C)cc2)n1
# In short: as §1
# [17] = compound: CN(C)CC(=O)Nc1ccc2[nH]c(=O)c3ccccc3c2c1
# In short: as §1
# [18] = compound: CN(CCOC1=CC=C(C=C1)C[C@H]2C(=O)NC(=O)S2)C3=CC=CC=N3 (racemic) [rosiglitazone]
# In short: as §1
# [19] = compound: CN1C2=C(C3=C1C(=O)N(N=C3)CC4=CC(=CC=C4)N)SC(=C2)S(=O)C
# In short: as §1
# [20] = compound: CN1CCC(CNc2ccc3ncc(-c4cccc(OC(F)(F)F)c4)n3n2)CC1
# In short: as §1
Target,log2 fold change [1],log2 fold change [2],log2 fold change [3],log2 fold change [4],log2 fold change [5],log2 fold change [6],log2 fold change [7],log2 fold change [8],log2 fold change [9],log2 fold change [10],log2 fold change [11],log2 fold change [12],log2 fold change [13],log2 fold change [14],log2 fold change [15],log2 fold change [16],log2 fold change [17],log2 fold change [18],log2 fold change [19],log2 fold change [20]
SEC11A isoform 3 (UniProt P67812),inactive: 0.011,inactive: -0.016,inactive: -0.05,inactive: -0.012,inactive: 0.006,inactive: -0.038,inactive: -0.013,inactive: -0.001,inactive: -0.01,inactive: 0.024,inactive: 0.007,inactive: 0.004,inactive: 0.015,inactive: -0.013,inactive: -0.01,inactive: 0.035,inactive: -0.003,inactive: 0.032,inactive: -0.015,inactive: 0.007
SCAMP4 (UniProt Q969E2),inactive: -0.021,inactive: -0.001,inactive: 0.079,inactive: -0.057,inactive: -0.023,inactive: -0.017,inactive: 0.016,inactive: -0.023,inactive: 0.034,inactive: 0.017,inactive: 0.062,inactive: -0.004,inactive: -0.061,inactive: -0.03,inactive: -0.039,inactive: -0.074,inactive: -0.024,inactive: 0.002,inactive: -0.029,inactive: -0.005
SCRN2 (UniProt Q96FV2),inactive: -0.065,inactive: -0.111,inactive: 0.1,inactive: -0.105,inactive: 0.067,inactive: 0.006,inactive: -0.089,inactive: -0.098,inactive: 0.044,inactive: 0.032,inactive: 0.059,inactive: 0.108,inactive: 0.196,inactive: 0.129,inactive: 0.035,inactive: -0.021,inactive: -0.077,inactive: 0.028,inactive: -0.018,inactive: 0.022
SCAP (UniProt Q12770),inactive: -0.023,inactive: 0.012,inactive: 0.041,inactive: 0.048,inactive: -0.005,inactive: 0.062,inactive: -0.056,inactive: -0.022,inactive: -0.013,inactive: -0.005,inactive: 0.009,inactive: -0.207,inactive: 0.005,inactive: 0.004,inactive: 0.019,inactive: -0.054,inactive: -0.022,inactive: 0.046,inactive: 0.016,inactive: 0.067
S100P (UniProt P25815),inactive: -0.069,inactive: -0.029,inactive: 0.087,inactive: 0.01,inactive: -0.017,inactive: 0.224,inactive: -0.004,inactive: 0.043,inactive: -0.071,inactive: 0.133,inactive: 0.003,inactive: -0.023,inactive: 0.019,inactive: 0.221,inactive: 0.099,inactive: 0.025,inactive: -0.018,inactive: 0.044,inactive: 0.088,inactive: 0.153
SAP30BP (UniProt Q9UHR5),inactive: -0.04,inactive: 0.046,inactive: -0.003,inactive: -0.025,inactive: -0.059,inactive: -0.011,inactive: -0.025,inactive: -0.008,inactive: 0.038,inactive: 0.014,inactive: -0.009,inactive: -0.072,inactive: -0.04,inactive: 0.038,inactive: -0.013,inactive: -0.012,inactive: -0.016,inactive: 0.002,inactive: -0.03,inactive: -0.043
SACS (UniProt Q9NZJ4),inactive: -0.103,inactive: -0.023,inactive: -0.102,inactive: -0.063,inactive: -0.045,inactive: 0.14,inactive: -0.11,inactive: -0.11,inactive: 0.015,inactive: 0.27,inactive: -0.036,inactive: 0.109,inactive: -0.016,inactive: -0.069,inactive: 0.041,inactive: 0.036,inactive: -0.191,inactive: -0.033,inactive: 0.16,inactive: -0.118
RSBN1L (UniProt Q6PCB5),inactive: -0.019,inactive: -0.036,inactive: -0.065,inactive: -0.193,inactive: 0.332,inactive: -0.114,inactive: -0.067,inactive: 0.148,inactive: -0.009,inactive: -0.115,inactive: 0.263,inactive: 0.484,inactive: 0.017,inactive: -0.246,inactive: -0.016,inactive: 0.119,inactive: -0.096,inactive: -0.069,inactive: 0.344,inactive: 0.236
S100A11 (UniProt P31949),inactive: 0.005,inactive: -0.013,inactive: 0.02,inactive: 0.12,inactive: 0.031,inactive: 0.03,inactive: -0.001,inactive: -0.016,inactive: -0.094,inactive: 0.063,inactive: -0.03,inactive: 0.048,inactive: 0,inactive: 0.191,inactive: 0.094,inactive: 0.051,inactive: -0.08,inactive: -0.017,inactive: -0.068,inactive: 0.059
SCAMP3 (UniProt O14828),inactive: -0.014,inactive: 0.092,inactive: 0.007,inactive: 0.039,inactive: -0.099,inactive: 0,inactive: 0.037,inactive: 0.296,inactive: -0.001,inactive: -0.013,inactive: -0.03,inactive: -0.022,inactive: -0.015,inactive: -0.066,inactive: 0.051,inactive: -0.007,inactive: -0.027,inactive: -0.009,inactive: 0.009,inactive: 0.008
SCRN3 (UniProt Q0VDG4),inactive: 0.017,inactive: 0.036,inactive: 0.016,inactive: -0.021,inactive: -0.007,inactive: 0.038,inactive: -0.007,inactive: 0.025,inactive: -0.081,inactive: 0.014,inactive: 0.057,inactive: 0.019,inactive: 0.041,inactive: 0.121,inactive: 0.009,inactive: -0.037,inactive: 0.012,inactive: 0.054,inactive: 0.003,inactive: -0.087
RTN3 (UniProt O95197),inactive: -0.026,inactive: -0.046,inactive: 0.007,inactive: 0.015,inactive: -0.021,inactive: 0.021,inactive: -0.031,inactive: -0.119,inactive: 0.023,inactive: -0.033,inactive: -0.011,inactive: -0.015,inactive: -0.034,inactive: -0.016,inactive: -0.002,inactive: 0,inactive: 0.005,inactive: -0.011,inactive: -0.081,inactive: 0.059
SAE1 (UniProt Q9UBE0),inactive: 0.045,inactive: -0.026,inactive: -0.023,inactive: 0.022,inactive: -0.046,inactive: 0.028,inactive: 0.036,inactive: -0.015,inactive: -0.024,inactive: 0.017,inactive: -0.023,inactive: -0.066,inactive: 0.006,inactive: 0.038,inactive: -0.001,inactive: -0.045,inactive: 0.019,inactive: 0.023,inactive: -0.069,inactive: 0.025
RTF1 (UniProt Q92541),inactive: 0.058,inactive: -0.028,inactive: 0,inactive: 0.016,inactive: -0.106,inactive: 0.039,inactive: 0.033,inactive: -0.019,inactive: -0.025,inactive: 0.027,inactive: -0.032,inactive: -0.121,inactive: 0.059,inactive: 0.09,inactive: -0.016,inactive: -0.034,inactive: 0.028,inactive: 0.019,inactive: -0.07,inactive: -0.044
SBF1 isoform 4 (UniProt O95248),inactive: -0.002,inactive: 0.094,inactive: -0.135,inactive: -0.08,inactive: 0.13,inactive: -0.222,inactive: 0.009,inactive: -0.023,inactive: 0.071,inactive: -0.03,inactive: -0.082,inactive: -0.032,inactive: -0.009,inactive: -0.175,inactive: -0.034,inactive: -0.019,inactive: 0.065,inactive: -0.111,inactive: 0.153,inactive: -0.299
SAAL1 (UniProt Q96ER3),inactive: 0.004,inactive: -0.008,inactive: 0.006,inactive: 0.009,inactive: -0.078,inactive: -0.017,inactive: 0.035,inactive: -0.014,inactive: -0.059,inactive: 0.046,inactive: -0.167,active: -0.245,inactive: 0.001,inactive: 0.025,,inactive: 0.025,inactive: -0.025,,inactive: -0.012,inactive: -0.219

# Two entries drawn at random from the list so far:
Target,log2 fold change [1],log2 fold change [2],log2 fold change [3],log2 fold change [4],log2 fold change [5],log2 fold change [6],log2 fold change [7],log2 fold change [8],log2 fold change [9],log2 fold change [10],log2 fold change [11],log2 fold change [12],log2 fold change [13],log2 fold change [14],log2 fold change [15],log2 fold change [16],log2 fold change [17],log2 fold change [18],log2 fold change [19],log2 fold change [20]
SAAL1 (UniProt Q96ER3),inactive: 0.004,inactive: -0.008,inactive: 0.006,inactive: 0.009,inactive: -0.078,inactive: -0.017,inactive: 0.035,inactive: -0.014,inactive: -0.059,inactive: 0.046,inactive: -0.167,active: -0.245,inactive: 0.001,inactive: 0.025,,inactive: 0.025,inactive: -0.025,,inactive: -0.012,inactive: -0.219
SCAP (UniProt Q12770),inactive: -0.023,inactive: 0.012,inactive: 0.041,inactive: 0.048,inactive: -0.005,inactive: 0.062,inactive: -0.056,inactive: -0.022,inactive: -0.013,inactive: -0.005,inactive: 0.009,inactive: -0.207,inactive: 0.005,inactive: 0.004,inactive: 0.019,inactive: -0.054,inactive: -0.022,inactive: 0.046,inactive: 0.016,inactive: 0.067
